Test results as given in patent publication US8476197B2, “Aminopropenoates as fungicides” (priority 2009, dated 2013).
Some entries share one result that the patent states for a list of compounds.

Tested on: Peronospora parasitica
Assay: In vivo test on Peronospora parasitica (crucifer downy mildew), cabbage plants
Details: dose of 500 ppm, grading 5 days after contamination

Structure (SMILES)	protection
C#CC(C)(C)NC(=C(C#N)C(=O)OCC)c1conc1C [Compound 1030]	at least 70%
CCOC(=O)C(C#N)=C(NC(C)C1CCCCC1)c1cn(C)nc1C(F)F (stereo not shown) [Compound 872]	at least 70%
CCOC(=O)C(C#N)=C(NCc1nccs1)c1sc(C)nc1C(F)(F)F [Compound 141]	at least 70%
CCOC(=O)C(C#N)=C(NC(C(=O)OC)C(C)C)c1sccc1Br (stereo not shown) [Compound 650]	at least 70%
CCOC(=O)C(C#N)=C(NC(C)C(=O)OC)c1sccc1C(F)(F)F (stereo not shown) [Compound 657]	at least 70%
CCOC(=O)C(C#N)=C(NC(C)c1ccccn1)c1sc(C)nc1C(F)(F)F (racemic) [Compound 146]	at least 70%
CCOC(=O)C(C#N)=C(NC(C)C(C)(C)C)c1sc(C)nc1C(F)(F)F (racemic) [Compound 922]	at least 70%
CCOC(=O)/C(C#N)=C(\NCc1nccs1)c1sccc1Cl [Compound 153]	at least 70%
CCOC(=O)C(C#N)=C(NCc1ccc(F)cn1)c1sc(C)nc1C(F)(F)F [Compound 204]	at least 70%
CCOC(=O)C(C#N)=C(NCc1nccs1)c1cn(C)nc1C(F)(F)F [Compound 138]	at least 70%
CCCC(C)NC(=C(C#N)C(=O)OCC)c1cn(C)nc1C(F)F (stereo not shown) [Compound 864]	at least 70%
CCOC(=O)C(C#N)=C(NCc1nc(C)cs1)c1sc(C)nc1C(F)(F)F [Compound 195]	at least 70%
CCOC(=O)C(C#N)=C(NC(C)C(=O)Nc1ccc2ccccc2c1)c1sccc1Br (racemic) [Compound 669]	at least 70%
CCOC(=O)C(C#N)=C(NC(C)c1ccccn1)c1cn(C)nc1C(F)(F)F (racemic) [Compound 140]	at least 70%
CCOC(=O)C(C#N)=C(NC(C)c1ccc(Cl)cc1)c1sc(C)nc1C(F)(F)F (stereo not shown) [Compound 433]	at least 70%
CCOC(=O)C(C#N)=C(NC(C)CC(C)C)c1cn(C)nc1C(F)F (racemic) [Compound 780]	at least 70%
COC(=O)C(C#N)=C(NC(C)c1ncc(C)s1)c1sc(C)nc1C(F)(F)F (racemic) [Compound 182]	at least 70%
COC(=O)C(C#N)=C(NC(C)C1(Cl)CC1)c1sc(C)nc1C(F)(F)F (stereo not shown) [Compound 770]	at least 70%
CCOC(=O)C(C#N)=C(NC(C)c1ccccn1)c1sccc1C(F)(F)F (stereo not shown) [Compound 103]	at least 70%
CCOC(=O)C(C#N)=C(NC(C)C(=O)OCC)c1sc(C)nc1C(F)(F)F (racemic) [Compound 679]	at least 70%
CCOC(=O)C(C#N)=C(NC(C)C(=O)NC)c1sccc1C(F)(F)F (stereo not shown) [Compound 639]	at least 70%
CCOC(=O)C(C#N)=C(NC(C)c1nc(C)c(C)s1)c1ccsc1I (racemic) [Compound 157]	at least 70%
CCOC(=O)C(C#N)=C(NC(C)C1(Cl)CC1)c1cn(C)nc1C(F)F (stereo not shown) [Compound 773]	at least 70%
CCOC(=O)C(C#N)=C(NC(C)C(C)(C)C)c1sccc1Br (racemic) [Compound 921]	at least 70%
CCOC(=O)C(C#N)=C(NC(C)CSC#N)c1cccnc1Cl (stereo not shown) [Compound 1109]	at least 70%
CCOC(=O)C(C#N)=C(NC(C)C(=O)Nc1ccc2ccccc2c1)c1sc(C)nc1C(F)(F)F (racemic) [Compound 676]	at least 70%

Structure (SMILES)	protection
CCOC(=O)C(C#N)=C(NC(C)C(N)=O)c1ccsc1Br (stereo not shown) [Compound 628]	at least 70%
CCOC(=O)C(C#N)=C(NC(C)C(=O)NC)c1ccsc1Br (stereo not shown) [Compound 637]	at least 70%
CCOC(=O)C(C#N)=C(NC(C)C1(Cl)CC1)c1sccc1Br (stereo not shown) [Compound 771]	at least 70%
CCOC(=O)C(C#N)=C(NC(C)C1CCCO1)c1cn(C)nc1C(F)F (stereo not shown) [Compound 199]	at least 70%
CCOC(=O)C(C#N)=C(NC(C)CC(C)C)c1sc(C)nc1C(F)(F)F (racemic) [Compound 784]	at least 70%
CCOC(=O)C(C#N)=C(NC(C)C(N)=O)c1ccsc1I (stereo not shown) [Compound 647]	at least 70%
CCOC(=O)C(C#N)=C(NC(C)CSC)c1cccnc1C (stereo not shown) [Compound 648]	at least 70%
CCOC(=O)C(C#N)=C(NC(C)C(C)C)c1cccnc1C (stereo not shown) [Compound 953]	at least 70%
CCOC(=O)C(C#N)=C(NC(C)C(=O)OC)c1cn(C)nc1C(F)F (stereo not shown) [Compound 673]	at least 70%
CCOC(=O)C(C#N)=C(NC(C)C(N)=O)c1sccc1C(F)(F)F (racemic) [Compound 660]	at least 70%
CCOC(=O)C(C#N)=C(NC(C)COC)c1cn(C)nc1C(F)F (stereo not shown) [Compound 685]	at least 70%
CCCC(C)NC(=C(C#N)C(=O)OCC)c1cccnc1Cl (racemic) [Compound 863]	at least 70%
CCOC(=O)C(C#N)=C(NC(C)c1ncc(C)s1)c1cn(C)nc1C(F)F (stereo not shown) [Compound 190]	at least 70%
CCOC(=O)C(C#N)=C(NC(C)C(=O)NC)c1cn(C)nc1C(F)(F)F (stereo not shown) [Compound 636]	at least 70%
CCOC(=O)C(C#N)=C(NC(C)C1CC1)c1sc(C)nc1C(F)(F)F (stereo not shown) [Compound 886]	at least 70%
CCOC(=O)C(C#N)=C(NC(C)COc1c(C)cccc1C)c1cn(C)nc1C(F)F (stereo not shown) [Compound 684]	at least 70%
CCOC(=O)C(C#N)=C(NC(C(=O)OC)C(C)C)c1cn(C)nc1C(F)F (racemic) [Compound 674]	at least 70%
CCOC(=O)C(C#N)=C(NC(C)C(=O)OCC)c1sccc1C(F)(F)F (racemic) [Compound 656]	at least 70%
CCOC(=O)C(C#N)=C(NC(C)C(N)=O)c1sc(C)nc1C(F)(F)F (stereo not shown) [Compound 641]	at least 70%
CCOC(=O)C(C#N)=C(NC(C)C(=O)NC)c1sccc1Br (stereo not shown) [Compound 612]	at least 70%
CCOC(=O)C(C#N)=C(NC(c1cc2ccccc2s1)C(F)(F)F)c1conc1C (stereo not shown) [Compound 93]	at least 70%
CCOC(=O)C(C#N)=C(NC(C)c1nccs1)c1cccnc1C (racemic) [Compound 152]	at least 70%
COC(=O)C(C#N)=C(NC(C)c1ccc(F)cc1)c1sc(C)nc1C(F)(F)F (mixture of isomers) [Compound 442]	at least 70%
CCOC(=O)C(C#N)=C(NC(C)C1CCCO1)c1sc(C)nc1C(F)(F)F (stereo not shown) [Compound 193]	at least 70%
CCOC(=O)C(C#N)=C(NC(C)C(C)(C)C)c1cn(C)nc1C(F)F (racemic) [Compound 918]	at least 70%
CCOC(=O)C(C#N)=C(Nc1ccccc1SC)c1c(C)nn(C)c1Cl [Compound 410]	at least 70%

Structure (SMILES)	protection
CCOC(=O)C(C#N)=C(NC(C)C(N)=O)c1cn(C)nc1C(F)(F)F (stereo not shown) [Compound 635]	at least 70%
CCOC(=O)C(C#N)=C(NC(C)c1ccc(C)cc1)c1cn(C)nc1C(F)F (mixture of isomers) [Compound 455]	at least 70%
CCOC(=O)C(C#N)=C(NC(C)C(C)C)c1ccc(C)nc1Cl (stereo not shown) [Compound 950]	at least 70%
COC(=O)C(C#N)=C(NC(C)C(=O)Nc1ccc2ccccc2c1)c1sc(C)nc1C(F)(F)F (racemic) [Compound 661]	at least 70%
CCOC(=O)C(C#N)=C(NC(C)c1ccccn1)c1ccsc1I (racemic) [Compound 163]	at least 70%
CCOC(=O)C(C#N)=C(NC(C)CCc1ccccc1)c1cn(C)nc1C(F)F (mixture of isomers) [Compound 453]	at least 70%
CCOC(=O)C(C#N)=C(NC(C)C1CC1)c1cn(C)nc1C(F)F (stereo not shown) [Compound 882]	at least 70%
COC(=O)C(C#N)=C(NCc1ncc(C)s1)c1sc(C)nc1C(F)(F)F [Compound 183]	at least 70%
CCOC(=O)C(C#N)=C(NC(C)c1nc(C)cs1)c1cn(C)nc1C(F)F (stereo not shown) [Compound 188]	at least 70%
CCOC(=O)C(C#N)=C(NCc1nc2ccccc2s1)c1cn(C)nc1C(F)F [Compound 191]	at least 70%
CCOC(=O)C(C#N)=C(NC(C)c1nc(C)cs1)c1sccc1Br (single isomer, unassigned) [Compound 167]	at least 70%
CCOC(=O)C(C#N)=C(NC(C)C(=O)NC)c1ccsc1I (stereo not shown) [Compound 646]	at least 70%
CCOC(=O)C(C#N)=C(NC(C)C(N)=O)c1sccc1Br (stereo not shown) [Compound 611]	at least 70%
CCOC(=O)C(C#N)=C(NC(C)COC)c1sccc1C(F)(F)F (racemic) [Compound 655]	at least 70%
COC(=O)C(C#N)=C(NC(C)c1nc(C)cs1)c1sc(C)nc1C(F)(F)F (racemic) [Compound 180]	at least 70%
CCOC(=O)C(C#N)=C(NC(C)C1CCCO1)c1sccc1C(F)(F)F (mixture of isomers) [Compound 172]	at least 70%
CCOC(=O)C(C#N)=C(NCc1nccs1)c1sccc1Br [Compound 88]	at least 70%
COC(=O)C(C#N)=C(NCc1nc(C)cs1)c1sc(C)nc1C(F)(F)F [Compound 181]	at least 70%
CCOC(=O)C(C#N)=C(Nc1cccnc1SC)c1cccnc1Cl [Compound 117]	at least 70%
CCOC(=O)C(C#N)=C(NC(C)C(N)=O)c1sccc1C(F)(F)F (stereo not shown) [Compound 610]	at least 70%
COC(=O)C(C#N)=C(NC(C)c1ccc(C)cc1)c1sc(C)nc1C(F)(F)F (mixture of isomers) [Compound 443]	at least 70%
CCOC(=O)C(C#N)=C(NC(C)C(=O)Nc1ccc2ccccc2c1)c1sccc1C(F)(F)F (racemic) [Compound 653]	at least 70%
CCOC(=O)C(C#N)=C(NCc1ccccn1)c1cn(C)nc1C(F)(F)F [Compound 139]	at least 70%
CCOC(=O)C(C#N)=C(NC(C)C(C)C)c1ccsc1Br (stereo not shown) [Compound 945]	at least 70%
